Values from PubChem BioAssay AID1259254 (NCATS, 2017)
Aim: 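Gene knock-downs that lead to re-replication, shown by excess G2 DNA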 (primary screen). System: human HCT116 colorectal cancer cells. Reagent: single siRNA against human genes. Duration: 3 days. Read-out: 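Nuclei stained with Hoechst and imaged; cell-cycle phase assigned by DNA content; G2 share scaled per plate, non-targeting siRNA 0%, GMNN siRNA 100%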. Reading the numbers: G2 robust z-score and G2 cells, % of GMNN control: higher = more G2 cells, more excess DNA replication. Hit rule: 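An siRNA counts as active if its G2 robust z-score lies at least 5 MADs above the screen median; here such calls match roughly 38% of GMNN control or more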.
This is one part, drawn at random, of about 59,000 deposited reagents. About 1,550 of them (2.6%) were called active. 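G2 share is only a proxy for re-replication; each gene was hit by three separate siRNAs, and active genes were retested.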 Unmarked entries are inactive. Reagents against one gene are numbered here. Further read-outs or replicates are left out here. Not stated in the record: the amount of reagent.

The opening 2 records, ahead of the listing:
| gene | siRNA no. | G2 robust z-score | G2 cells, % of GMNN control |
| --- | --- | --- | --- |
| VWA5A | 1 | 2.6 | 21.2 |
| VWA5A | 2 | 0.215 | 4.48 |

Main list, from the first entry:
| gene | siRNA no. | G2 robust z-score | G2 cells, % of GMNN control |
| --- | --- | --- | --- |
| VWA5A | 1 | 2.6 | 21.2 |
| VWA5A | 2 | 0.215 | 4.48 |
| VWA5A | 3 | 0.539 | 6.76 |
| ABHD12 | 1 | 0.459 | 6.2 |
| ABHD12 | 2 | 0.449 | 6.13 |
| ABHD12 | 3 | 0.248 | 4.71 |
| PNLIPRP1 | 1 | 0.279 | 4.93 |
| PNLIPRP1 | 2 | 1.68 | 14.8 |
| PNLIPRP1 | 3 | 3.04 | 24.3 |
| A1CF | 1 | 1.23 | 11.6 |
| A1CF | 2 | -0.464 | -0.298 |
| A1CF | 3 | 2.03 | 17.3 |
| SSPN | 1 | 0.892 | 9.24 |
| SSPN | 2 | 2.47 | 20.3 |
| SSPN | 3 | 0.128 | 3.87 |
| SLC35F4 | 1 | 4.79 | 36.7 |
| SLC35F4 | 2 | -0.463 | -0.288 |
| SLC35F4 | 3 | 0.185 | 4.27 |
| BRWD3 | 1 | 0.253 | 4.75 |
| BRWD3 | 2 | -0.718 | -2.08 |
| BRWD3 | 3 | 0.387 | 5.69 |
| EXOSC3 | 1 | 1.77 | 15.4 |
| EXOSC3 | 2 | 3.15 | 25.2 |
| EXOSC3 | 3 | 0.0461 | 3.29 |
| EPN2 | 1 | 3.06 | 24.5 |
| EPN2 | 2 | 1.69 | 14.8 |
| EPN2 | 3 | 0.0936 | 3.63 |
| TDP2 | 1 | 0.464 | 6.23 |
| TDP2 | 2 | -0.741 | -2.24 |
| TDP2 | 3 | -0.771 | -2.46 |
| NOD1 | 1 | 0.279 | 4.93 |
| NOD1 | 2 | 2.14 | 18 |
| NOD1 | 3 | -0.657 | -1.65 |
| LOC643085 (retired record) | 1 | -0.976 | -3.9 |
| LOC643085 (retired record) | 2 | -1.47 | -7.37 |
| LOC643085 (retired record) | 3 | -0.941 | -3.65 |
| SESTD1 | 1 | 0.615 | 7.3 |
| SESTD1 | 2 | -0.639 | -1.53 |
| SESTD1 | 3 | -0.799 | -2.66 |
| OR5M10 | 1 | 1.25 | 11.8 |
| OR5M10 | 2 | 3.57 | 28.1 |
| OR5M10 | 3 | 2.07 | 17.6 |
| TMEM178A | 1 | 9.57 (active) | 70.3 |
| TMEM178A | 2 | 1.56 | 13.9 |
| TMEM178A | 3 | -0.444 | -0.156 |
| ROPN1 | 1 | 3.77 | 29.5 |
| ROPN1 | 2 | 0 | 2.97 |
| ROPN1 | 3 | 1.42 | 13 |
| USP15 | 1 | -1.2 | -5.46 |
| USP15 | 2 | -0.388 | 0.234 |
| USP15 | 3 | 0.522 | 6.64 |
| PATL1 | 1 | 1.04 | 10.3 |
| PATL1 | 2 | 1.54 | 13.8 |
| PATL1 | 3 | 1.03 | 10.2 |
| POFUT1 | 1 | 0.638 | 7.46 |
| POFUT1 | 2 | -0.0963 | 2.29 |
| POFUT1 | 3 | 3.03 | 24.3 |
| SCARA5 | 1 | 2.85 | 23 |
| SCARA5 | 2 | 0.617 | 7.31 |
| SCARA5 | 3 | -0.125 | 2.09 |
| C2orf78 | 1 | 0.233 | 4.61 |
| C2orf78 | 2 | 0.804 | 8.63 |
| C2orf78 | 3 | 1.35 | 12.5 |
| KRTAP2-1 | 1 | -0.788 | -2.57 |
| KRTAP2-1 | 2 | -0.396 | 0.178 |
| KRTAP2-1 | 3 | -0.342 | 0.56 |
| EBF3 | 1 | 0.186 | 4.28 |
| EBF3 | 2 | 0.315 | 5.18 |
| EBF3 | 3 | 3.04 | 24.4 |
